Results are given in words; binding and its absence hold for the method and conditions named. Some results given as binding are weak or reduced against the parent protein; the word gives no strength. Sequences can lack the tags named with a protein.
Molecular target: T1, HA-NL1-His (recombinant mouse neuroligin-1 ectodomain) (mouse), Q99K10
T1 chain: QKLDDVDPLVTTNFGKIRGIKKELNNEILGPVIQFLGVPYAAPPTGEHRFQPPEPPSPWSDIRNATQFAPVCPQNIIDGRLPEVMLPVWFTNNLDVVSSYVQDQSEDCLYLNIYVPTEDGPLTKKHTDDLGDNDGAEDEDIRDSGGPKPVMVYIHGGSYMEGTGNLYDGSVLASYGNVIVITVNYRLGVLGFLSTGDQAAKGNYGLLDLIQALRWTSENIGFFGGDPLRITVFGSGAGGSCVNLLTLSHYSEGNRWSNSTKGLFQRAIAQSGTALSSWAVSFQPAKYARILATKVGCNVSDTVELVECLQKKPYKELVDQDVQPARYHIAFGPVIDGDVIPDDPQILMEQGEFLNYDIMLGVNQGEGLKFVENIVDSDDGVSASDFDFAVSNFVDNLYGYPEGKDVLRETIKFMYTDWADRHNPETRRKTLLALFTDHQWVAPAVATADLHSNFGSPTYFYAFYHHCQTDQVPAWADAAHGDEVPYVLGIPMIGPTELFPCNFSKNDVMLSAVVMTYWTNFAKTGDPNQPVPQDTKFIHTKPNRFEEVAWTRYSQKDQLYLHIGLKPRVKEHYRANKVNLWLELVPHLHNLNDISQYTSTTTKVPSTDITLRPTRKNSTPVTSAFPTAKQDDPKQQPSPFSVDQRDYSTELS
Test: cross-linking; purified recombinant HA-tagged NL1 ectodomains treated with 0.5 mM BS3 for the indicated times; dimerization; both purified
Settings: remark: other sources report otherwise

binding: binds
B1: HA-NL1-His (recombinant mouse neuroligin-1 ectodomain), Q99K10 46-697 (domain or fragment)
chain: QKLDDVDPLVTTNFGKIRGIKKELNNEILGPVIQFLGVPYAAPPTGEHRFQPPEPPSPWSDIRNATQFAPVCPQNIIDGRLPEVMLPVWFTNNLDVVSSYVQDQSEDCLYLNIYVPTEDGPLTKKHTDDLGDNDGAEDEDIRDSGGPKPVMVYIHGGSYMEGTGNLYDGSVLASYGNVIVITVNYRLGVLGFLSTGDQAAKGNYGLLDLIQALRWTSENIGFFGGDPLRITVFGSGAGGSCVNLLTLSHYSEGNRWSNSTKGLFQRAIAQSGTALSSWAVSFQPAKYARILATKVGCNVSDTVELVECLQKKPYKELVDQDVQPARYHIAFGPVIDGDVIPDDPQILMEQGEFLNYDIMLGVNQGEGLKFVENIVDSDDGVSASDFDFAVSNFVDNLYGYPEGKDVLRETIKFMYTDWADRHNPETRRKTLLALFTDHQWVAPAVATADLHSNFGSPTYFYAFYHHCQTDQVPAWADAAHGDEVPYVLGIPMIGPTELFPCNFSKNDVMLSAVVMTYWTNFAKTGDPNQPVPQDTKFIHTKPNRFEEVAWTRYSQKDQLYLHIGLKPRVKEHYRANKVNLWLELVPHLHNLNDISQYTSTTTKVPSTDITLRPTRKNSTPVTSAFPTAKQDDPKQQPSPFSVDQRDYSTELS

From article PMC6173057
